Consider one molecule from US20190161517A1 (ENSOL BIOSCIENCES, published 2019).

The chains behind the UniProt entries cited, without tags or fusion partners. Where a name states a change or a piece, a line headed by the entry shows the natural chain unless it says otherwise. Residues count along the entry.
UniProt Q15109, residues 23-342: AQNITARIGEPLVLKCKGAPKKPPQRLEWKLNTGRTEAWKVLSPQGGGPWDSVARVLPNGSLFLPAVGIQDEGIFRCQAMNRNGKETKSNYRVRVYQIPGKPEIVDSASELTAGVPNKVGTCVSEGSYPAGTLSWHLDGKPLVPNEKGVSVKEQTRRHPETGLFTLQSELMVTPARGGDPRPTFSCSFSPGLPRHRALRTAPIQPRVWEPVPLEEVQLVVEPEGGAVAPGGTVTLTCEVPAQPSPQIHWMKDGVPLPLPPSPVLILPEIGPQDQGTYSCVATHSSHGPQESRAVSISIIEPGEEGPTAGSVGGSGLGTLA

This experiment has as its target extracellular domain recombinant protein RAGE (11629-H08H, Sino Biological Inc.) (UniProt Q15109). Put plainly: MST (Microscale Thermophoresis). In general terms: Microscale thermophoresis detects binding through changes in fluorescence in a small temperature gradient.

Results are given in words; binding and its absence hold for the method and conditions named. Some entries that bind do so weakly or less than the wild type.

B1: peptide of Example 1 (DGEFF) (peptide)
peptide: DGEFF
notes: Synthetic peptide made by AnyGen Co., Ltd
With B1, the binding entry is on record as “binds”.
